According to PubChem BioAssay AID540276 (National Center for Advancing Translational Sciences (NCATS), 2011):
Hit rate of the full screen: of about 300,000 compounds, about 5,400 (1.8%) were called active. Inconclusive results, whose numbers are uncertain, are shown with a selection of clear calls. Calls come from the whole dose curve; tested in HEK293 cells. Potencies beside an inconclusive call are fits to weak or partial responses and may not hold up.
% is set by controls: 0 for no effect and ±100 for the full control effect; potency is the fitted concentration of half-maximal effect.

Experiment: qHTS for inhibitors of binding or entry into cells for Marburg Virus
Conditions: Marburg virus pseudotyped entry inhibition, cell reporter; activity change, negative = inhibition: at 37.8 µM (top of the series) unless noted
For `CC1=NN(C(=O)c2ccc(C)o2)C(O)(c2ccccc2)C1` (stereo not drawn), the “activity change, negative = inhibition” value was inactive: 2.51%.
For `Cc1cc(NC(=O)CSc2nc3c(cc2C#N)CCCCC3)no1`, the Potency was inconclusive: 35.5 µM [activator, single point].
For `CCOCCCn1c(=S)[nH]c2cc(C(=O)NC3CCCC(C)C3C)ccc2c1=O` (stereo not drawn), the Potency was inconclusive: 35.5 µM [activator, single point].
With `Cc1cc(/C=N/NC(N)=O)c(C)n1-c1ccc(F)cc1` the “activity change, negative = inhibition” value was inactive: 11.8%.
In the case of `COc1ccc(-c2cnnn2-c2ccc(NC(=O)/C=C/c3ccc(OC)c(OC)c3)cc2)cc1`, the Potency is reported as inconclusive: 15.8 µM [inhibitor, single point].
For `Cc1ccc(OCC(=O)O)c(O)c1`, the Potency was inconclusive: 22.4 µM [activator, single point].
With `Cc1ccc(C)c(Cn2nnc3c(=O)[nH]c(C(=O)NCC4CCCO4)nc32)c1` (stereo not drawn) the Potency was inconclusive: 0.651 µM [inhibitor, partial curve, poor fit].
For `Cc1ccc(NC2=C(Cl)C(=O)N(C3CCCCC3)C2=O)cc1`, the Potency was inconclusive: 22.4 µM [activator, single point].
For `O=C(c1ccco1)N1CCN(C(=O)c2ccco2)C1=S`, the Potency was inconclusive: 8.91 µM [inhibitor, partial curve, poor fit].
With `Nc1[nH]c(N=NC(=O)c2ccc(F)cc2)c2ccccc12` the Potency was inconclusive: 29.1 µM [inhibitor, single point].
In the case of `Cc1cccc(N(CC(=O)NC(C)(C)C)C(=O)CS(=O)CC(=O)Nc2ccc(F)cc2)c1` (stereo not drawn), the Potency is reported as inconclusive: 35.5 µM [inhibitor, single point].
With `O=C(NC(Cc1ccccc1)C(=O)N1CCN(S(=O)(=O)c2ccccc2)CC1)c1ccccc1` (stereo not drawn) the Potency was inconclusive: 35.5 µM [inhibitor, single point].
With `O=C(CN1CCCCCC1)Nc1cccc(Br)c1` the Potency was inconclusive: 16.4 µM [inhibitor, single point].
With `Cn1ccnc1SCC(=O)c1ccc(Br)cc1` the “activity change, negative = inhibition” value was inactive: 5.53%.
With `Cc1cc[n+](C(C)C(=O)c2ccc(-c3ccccc3)cc2)cc1` (stereo not drawn) the Potency was inconclusive: 10 µM [inhibitor, partial curve, poor fit].
In the case of `Cc1ccc(S(=O)(=O)c2nc(-c3ccccc3)oc2SCC(=O)NCC2CCCO2)cc1` (stereo not drawn), the Potency is reported as inconclusive: 7.94 µM [inhibitor, partial curve, poor fit].
In the case of `CC(=O)c1ccc(NC(=O)CCCN2C(=O)COc3ccc(C)cc32)cc1`, the “activity change, negative = inhibition” value is reported as inactive: 15.2% [at 46.1 µM].
With `CCNc1ccc(C(=O)OCC)cc1NC(=O)c1cccc(S(=O)(=O)N(C)c2ccccc2)c1` the Potency was inconclusive: 35.5 µM [inhibitor, single point].
With `COc1ccccc1C(=O)N1CCC(c2noc(-c3ccc(S(=O)(=O)N4CCCC4)cc3)n2)CC1` the “activity change, negative = inhibition” value was inactive: -13% [at 46.1 µM].
For `CCCOC1CCCN(C(=O)c2cc(COc3c(F)cccc3F)on2)C1` (stereo not drawn), the “activity change, negative = inhibition” value was inactive: 1.16%.
With `COc1cccc(-c2cn3nc(C)c(C)nc3n2)c1` the Potency was inconclusive: 35.5 µM [inhibitor, single point].
With `CC(C)(C)c1ccc(/C=C/C(=O)Nc2ncccn2)cc1` the Potency was inconclusive: 0.0251 µM [inhibitor, partial curve, poor fit].
For `COc1ccccc1N(C)S(=O)(=O)c1ccc(C(=O)N2CCCC(C(F)(F)F)C2)cc1` (stereo not drawn), the Potency was inconclusive: 14.1 µM [inhibitor, single point].
With `COc1cccc(-c2cc(C(=O)Nc3cccc(O)c3)no2)c1` the Potency was active: 4.61 µM.
For `COc1cc(SC)ccc1C(=O)Nc1ccc2c(c1)CCC2`, the Potency was inconclusive: 6.31 µM [activator, full curve, poor fit].
With `COc1ccc(OC)c(C(C)NC=O)c1` (stereo not drawn) the “activity change, negative = inhibition” value was inactive: -22.2%.
For `CN(C)c1nc(NCc2ccccc2)nc(N/N=C/c2ccc3c(c2)OCO3)n1`, the “activity change, negative = inhibition” value was inactive: -17.3%.
For `Cn1c(N)c(C(=O)Nc2ccc3ccccc3c2)sc1=S`, the Potency was inconclusive: 8.2 µM [activator, partial curve].
For `COc1cc(CNC(C)c2ccccc2)cc(Br)c1OCc1ccc(F)cc1` (stereo not drawn), the Potency was active: 3.55 µM.
For `O=C(NCCCN1CCCC1=O)c1cccc(C(F)(F)F)c1`, the “activity change, negative = inhibition” value was inactive: 1.6%.
With `COc1ccc(C(OC(=O)c2c(C)noc2C)C(=O)NC2CCCC2)cc1` (stereo not drawn) the “activity change, negative = inhibition” value was inactive: 13.2%.
In the case of `CS(=O)(=O)N(Cc1ccc(Cl)cc1)c1ccc(C(=O)NCc2ccccn2)cc1`, the Potency is reported as inconclusive: 35.5 µM [inhibitor, single point].
For `O=C(CNC(=S)N(Cc1ccccc1)Cc1cccs1)NCc1ccc(F)cc1`, the Potency was inconclusive: 12.6 µM [inhibitor, single point].
In the case of `CCCC(C)NC(=O)COc1ccc(Sc2ccc(OCC(=O)NC(C)CCC)cc2)cc1` (stereo not drawn), the Potency is reported as inconclusive: 2 µM [inhibitor, full curve].
In the case of `O=C(N/N=C/c1cc2c3c(c1O)CCCN3CCC2)c1ccccc1O`, the Potency is reported as active: 1.46 µM.
For `CC(CCc1ccccc1)NC(=O)COC(=O)c1ccc(S(C)(=O)=O)c([N+](=O)[O-])c1` (stereo not drawn), the Potency was inconclusive: 35.5 µM [inhibitor, partial curve, poor fit].
For `COc1ccc(CN(C(=O)c2nsc(Cl)c2Cl)C(C(=O)NC2CCCCC2)c2ccc(OC)cc2)cc1` (stereo not drawn), the Potency was active: 14.6 µM.
With `Cc1cccc(-n2nnnc2SCC(=O)c2cc(C)n(CC3CCCO3)c2C)c1` (stereo not drawn) the Potency was inconclusive: 6.31 µM [activator, single point].
With `COc1ccc(CCNC(=O)c2ccc(OCc3c(C)noc3C)c(OC)c2)cc1` the “activity change, negative = inhibition” value was inactive: 12.5%.
In the case of `Cc1ccc(CNC(=O)Cn2cnc(S(=O)(=O)N3CCCCC3)c2)o1`, the Potency is reported as inconclusive: 35.5 µM [activator, single point].
In the case of `COc1cccc(-c2nc(COc3ccc(Cl)cc3Cl)no2)c1`, the “activity change, negative = inhibition” value is reported as inactive: 2.33%.
For `Cc1ccc(/C=C2/CCc3c([nH]c4ccccc34)C2=O)cc1`, the Potency was inconclusive: 0.112 µM [activator, full curve, poor fit].
In the case of `Cn1cc(/C=C(\C#N)C(=O)Nc2ncc(Cc3cccc(Cl)c3)s2)c2ccccc21`, the “activity change, negative = inhibition” value is reported as inactive: -2.99%.
For `O=C(NN1C(=O)c2ccccc2C1=O)c1ccc2c(c1)C(=O)N(CC1CCCO1)C2=O` (stereo not drawn), the Potency was inconclusive: 3.16 µM [activator, single point].
For `COc1ccc2cc(C(=O)Nc3ccc(F)cc3)sc(=O)c2c1OC`, the Potency was inconclusive: 35.5 µM [inhibitor, single point].
With `COc1ccc(-c2nc(N)n(S(=O)(=O)c3ccc(C)cc3)n2)cc1` the Potency was inconclusive: 35.5 µM [inhibitor, single point].
With `Nc1cccc(-c2nc3ccccc3[nH]2)c1` the Potency was inconclusive: 0.73 µM [activator, full curve, poor fit].
In the case of `COc1cc(OC)cc(C(=O)Nc2nnc(Cc3ccc(OC)c(OC)c3)s2)c1`, the Potency is reported as inconclusive: 1.26 µM [activator, single point].
In the case of `Cc1cc(C)n2c(Nc3ccc(Cl)cc3)c(-c3ccsc3)nc2n1`, the Potency is reported as inconclusive: 2.24 µM [inhibitor, partial curve, poor fit].
In the case of `COc1cccc(-n2c(SCC#N)nnc2-c2cnccn2)c1`, the Potency is reported as inconclusive: 12.6 µM [activator, single point].
With `CCCCS(=O)(=O)c1oc(-c2cccs2)nc1S(=O)(=O)c1ccccc1` the Potency was inconclusive: 5.01 µM [inhibitor, full curve, poor fit].
For `Cc1ccc(NC(CC(=O)c2ccccc2)c2ccc(F)cc2)cc1` (stereo not drawn), the “activity change, negative = inhibition” value was inactive: -6.43%.
For `Cc1cc2oc(=O)cc(COC(=O)Cn3cnnn3)c2cc1C(C)C`, the “activity change, negative = inhibition” value was inactive: -16.4%.
For `Cc1ccc(S(=O)(=O)N2CCN(c3ncnc4sccc34)CC2)cc1C`, the Potency was inconclusive: 14.1 µM [inhibitor, single point].
In the case of `O=C(NCCc1ccc(Cl)cc1)C1CCN(S(=O)(=O)c2cccc3nonc23)CC1`, the Potency is reported as inconclusive: 1.78 µM [inhibitor, full curve, poor fit].
With `COc1ccc(C2CC(=O)C3=C(C2)NC(C)=C(C#N)C3c2ccc(N(C)C)cc2)cc1` (stereo not drawn) the Potency was inconclusive: 35.5 µM [inhibitor, single point].
In the case of `COc1cccc(C(=O)Nc2ccc3nc(SCC(=O)N4CCOCC4)sc3c2)c1`, the Potency is reported as inconclusive: 20 µM [inhibitor, single point].
In the case of `O=C(Nc1ccc(N2CCCC2)c(Cl)c1)c1cccc(-c2cc3ccccc3oc2=O)c1`, the Potency is reported as inconclusive: 8.91 µM [inhibitor, single point].
In the case of `CC(C(=O)N1CCN(C=O)CC1)N1C(=O)c2ccccc2C1=O` (stereo not drawn), the Potency is reported as inconclusive: 0.891 µM [activator, full curve, poor fit].
In the case of `Cc1ccccc1-c1nc(-c2ccc(Br)o2)no1`, the Potency is reported as inconclusive: 1 µM [activator, full curve, poor fit].
In the case of `CS(=O)(=O)c1ccc(Cl)c(NC(=O)COC(=O)CNC(=O)c2ccc3ccccc3c2)c1`, the “activity change, negative = inhibition” value is reported as inactive: 26.4%.
In the case of `CC(=O)N1CCc2c(sc(NC(=O)C3CCN(S(=O)(=O)c4cccs4)CC3)c2C(N)=O)C1`, the “activity change, negative = inhibition” value is reported as inactive: -27.7% [at 46.1 µM].
For `Cc1ccc(NC(=O)Nc2ccnc(-c3cccnc3)n2)cc1`, the Potency was inconclusive: 9.2 µM [inhibitor, partial curve, poor fit].
For `Cn1cc([N+](=O)[O-])c(C(=O)Nc2cc(Oc3ccccc3)cc([N+](=O)[O-])c2)n1`, the Potency was inconclusive: 15.8 µM [inhibitor, partial curve, poor fit].
For `CCN1CCN(Cc2ccc(OCc3ccccc3)c(OC)c2)CC1`, the “activity change, negative = inhibition” value was inactive: -5.22%.
For `O=C(Nc1ccc2c(c1)OCO2)c1c(F)cccc1F`, the “activity change, negative = inhibition” value was inactive: 0.809%.
With `CN(CC(=O)Nc1nc2ccccc2s1)S(=O)(=O)c1ccccc1` the Potency was inconclusive: 6.31 µM [activator, partial curve, poor fit].
With `COc1ccc(NC(=O)CSc2oc(-c3cccs3)nc2S(=O)(=O)c2ccc(C)cc2)c(OC)c1` the Potency was inconclusive: 11.2 µM [inhibitor, partial curve, poor fit].
